PubChem BioAssay AID1224830, NIAID | 2016
The deposit covers about 18,000 reagents; this is a random part of them. About 2,900 of them (16%) were called active. 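Calls are made per well; low scores hint the gene aids the LPS response, high scores that it dampens it.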 Repeated entries: four replicate wells of each siRNA pool. No sequences are given here.

- Test: 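Regulators of TLR4 signalling towards TNF-alpha in macrophage-like cells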 (primary screen)
- Cell system: human THP-1 monocytic leukaemia cells, TNF dual-luciferase reporter clone, PMA-differentiated to macrophage-like cells
- Knock-down reagent: siRNA pool against human genes, 50 nM
- Duration: LPS for 4 h, given about 3 days after siRNA transfection
- Challenge: bacterial LPS (TLR4 ligand), 10 ng/ml
- Detection: 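TNF firefly reporter luminescence divided by renilla, normalised to the plate median, then turned into a robust z-score for each replicate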
- Direction: TNF reporter robust z-score: higher = stronger TNF reporter response to LPS
- Hit rule: 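Each well counts as active if its z-score is over 2.8 or under -1.5; controls are left without a call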

gene	PubChem SID	TNF reporter robust z-score	outcome
PRC1	SID315453006	2.21	inactive
PRC1	SID315453006	3.36	active
PRC1	SID315453006	1.93	inactive
PRC1	SID315453006	1.45	inactive
CD3G	SID315447759	-0.09	inactive
CD3G	SID315447759	0.59	inactive
CD3G	SID315447759	-0.54	inactive
CD3G	SID315447759	0.34	inactive
FBLN7	SID315461842	-0.22	inactive
FBLN7	SID315461842	0.07	inactive
FBLN7	SID315461842	-0.1	inactive
FBLN7	SID315461842	0.26	inactive
PDYN	SID315450505	-0.15	inactive
PDYN	SID315450505	1.51	inactive
PDYN	SID315450505	-0.83	inactive
PDYN	SID315450505	0.8	inactive
MAP1LC3C	SID315464921	-0.02	inactive
MAP1LC3C	SID315464921	0.45	inactive
MAP1LC3C	SID315464921	-0.33	inactive
MAP1LC3C	SID315464921	1.25	inactive
HIPK1	SID315463139	0.5	inactive
HIPK1	SID315463139	0.58	inactive
HIPK1	SID315463139	1.59	inactive
HIPK1	SID315463139	1.21	inactive
GRAMD4	SID315455026	-0.54	inactive
GRAMD4	SID315455026	-0.35	inactive
GRAMD4	SID315455026	0.24	inactive
GRAMD4	SID315455026	-0.29	inactive
DLGAP5	SID315453566	0.42	inactive
DLGAP5	SID315453566	-1.19	inactive
DLGAP5	SID315453566	-0.3	inactive
DLGAP5	SID315453566	-0.85	inactive
IMPDH2	SID315449500	-0.81	inactive
IMPDH2	SID315449500	1.24	inactive
IMPDH2	SID315449500	1.83	inactive
IMPDH2	SID315449500	0.02	inactive
UGGT2	SID315457831	-0.25	inactive
UGGT2	SID315457831	0.21	inactive
UGGT2	SID315457831	0.06	inactive
UGGT2	SID315457831	-0.02	inactive
SETDB2	SID315460094	1.33	inactive
SETDB2	SID315460094	0.35	inactive
SETDB2	SID315460094	1.69	inactive
SETDB2	SID315460094	1.18	inactive
OGDHL	SID315457827	0.15	inactive
OGDHL	SID315457827	1.69	inactive
OGDHL	SID315457827	0.24	inactive
OGDHL	SID315457827	1.45	inactive
ARRDC4	SID315460966	-1.38	inactive
ARRDC4	SID315460966	-0.27	inactive
ARRDC4	SID315460966	-0.46	inactive
ARRDC4	SID315460966	-0.91	inactive
TES	SID315455684	0.18	inactive
TES	SID315455684	0.52	inactive
TES	SID315455684	0.2	inactive
TES	SID315455684	0.98	inactive
RNPS1	SID315454457	-1	inactive
RNPS1	SID315454457	-0.67	inactive
RNPS1	SID315454457	-0.54	inactive
RNPS1	SID315454457	-0.04	inactive
LMOD3	SID315458044	2.26	inactive
LMOD3	SID315458044	3.07	active
LMOD3	SID315458044	2	inactive
LMOD3	SID315458044	2.57	inactive
USP45	SID315460637	-1.28	inactive
USP45	SID315460637	-1.02	inactive
USP45	SID315460637	-0.69	inactive
SLC25A21	SID315460754	-1.03	inactive
SLC25A21	SID315460754	-0.92	inactive
SLC25A21	SID315460754	-0.82	inactive
SLC25A21	SID315460754	-0.74	inactive
COMMD3	SID315455224	-1.35	inactive
COMMD3	SID315455224	-0.93	inactive
COMMD3	SID315455224	-0.71	inactive
COMMD3	SID315455224	-0.86	inactive
CMC2	SID315458178	0.21	inactive
CMC2	SID315458178	-0.92	inactive
CMC2	SID315458178	-0.5	inactive
CMC2	SID315458178	-0.18	inactive
ABHD17B	SID315456473	0.61	inactive
ABHD17B	SID315456473	0.37	inactive
ABHD17B	SID315456473	0.11	inactive
ABHD17B	SID315456473	-0.47	inactive
GRIN2A	SID315449048	-0.93	inactive
GRIN2A	SID315449048	-0.23	inactive
GRIN2A	SID315449048	0.3	inactive
GRIN2A	SID315449048	-0.5	inactive
NAPA	SID315452810	1.73	inactive
NAPA	SID315452810	1.6	inactive
NAPA	SID315452810	1.49	inactive
NAPA	SID315452810	1.01	inactive
TBX4	SID315453330	0.57	inactive
TBX4	SID315453330	1.08	inactive
TBX4	SID315453330	1.06	inactive
TBX4	SID315453330	1.43	inactive
C6orf136	SID315463307	-0.57	inactive
C6orf136	SID315463307	-1.5	inactive
C6orf136	SID315463307	-0.94	inactive
C6orf136	SID315463307	-0.27	inactive
JUP	SID315449588	-1.52	active
JUP	SID315449588	-1.21	inactive
JUP	SID315449588	-1.76	active
JUP	SID315449588	-1.74	active
MYL12B	SID315461136	1.09	inactive
MYL12B	SID315461136	0.11	inactive
MYL12B	SID315461136	0	inactive
MYL12B	SID315461136	0.04	inactive
OGG1	SID315450352	0.92	inactive
OGG1	SID315450352	1.18	inactive
OGG1	SID315450352	0.85	inactive
OGG1	SID315450352	1.32	inactive
